{"source": "PubChem BioAssay AID743121 (NCATS, 2013)", "screen": "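Knock-downs that sensitise breast cancer cells to camptothecin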 (primary screen)", "cell system": "MDA-MB-231 cells, a human breast cancer line", "knock-down reagent": "single siRNA against human genes, 20 nM siRNA (0.8 pmol per well)", "timing": "120 h (drug added 48 h after transfection, read 72 h later)", "conditions": "camptothecin 20 nM (about EC30) for 72 h; vehicle 0.1% DMSO in parallel plates", "measured": "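CellTiter-Glo ATP signal, scaled to control siRNA as percent viability; sensitisation given as log2 of untreated divided by camptothecin-treated viability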", "scale": "log2 vehicle/camptothecin viability: higher = stronger sensitisation to camptothecin", "call rule": "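Each gene scored by redundant siRNA activity (RSA) over its individual siRNA ratios; a gene is called active at p < 0.001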", "note": "This is an unselected part of about 26,000 deposited reagents. 167 of them (0.63%) were called active. 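Calls are per gene from RSA p-values that are not deposited; an individual active-marked siRNA can sensitise only weakly.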 A number with no mark means an inactive call. Not all columns of the deposit are shown."}
{"gene":"PDZD8 (PDZ domain containing 8)","PubChem SID":"SID164565699","log2 vehicle/camptothecin viability":-0.524}
{"gene":"PDZD8 (PDZ domain containing 8)","PubChem SID":"SID164565700","log2 vehicle/camptothecin viability":-0.0678}
{"gene":"PDZD8 (PDZ domain containing 8)","PubChem SID":"SID164565701","log2 vehicle/camptothecin viability":0.00943}
{"gene":"PDZD8 (PDZ domain containing 8)","PubChem SID":"SID164565704","log2 vehicle/camptothecin viability":-0.163}
{"gene":"SLC6A13","PubChem SID":"SID164388428","log2 vehicle/camptothecin viability":0.318}
{"gene":"SLC6A13","PubChem SID":"SID164388433","log2 vehicle/camptothecin viability":-0.381}
{"gene":"SLC6A13","PubChem SID":"SID164388434","log2 vehicle/camptothecin viability":0.304}
{"gene":"SLC6A13","PubChem SID":"SID164388435","log2 vehicle/camptothecin viability":-0.193}
{"gene":"SETD2 (SET domain containing 2, histone lysine methyltransferase)","PubChem SID":"SID164464929","log2 vehicle/camptothecin viability":-0.337}
{"gene":"SETD2 (SET domain containing 2, histone lysine methyltransferase)","PubChem SID":"SID164464935","log2 vehicle/camptothecin viability":0.385}
{"gene":"SETD2 (SET domain containing 2, histone lysine methyltransferase)","PubChem SID":"SID164464936","log2 vehicle/camptothecin viability":-0.34}
{"gene":"SETD2 (SET domain containing 2, histone lysine methyltransferase)","PubChem SID":"SID164464937","log2 vehicle/camptothecin viability":-0.168}
{"gene":"CLECL1 (C-type lectin like 1)","PubChem SID":"SID164578641","log2 vehicle/camptothecin viability":-0.137}
{"gene":"CLECL1 (C-type lectin like 1)","PubChem SID":"SID164578643","log2 vehicle/camptothecin viability":-0.292}
{"gene":"CLECL1 (C-type lectin like 1)","PubChem SID":"SID164578644","log2 vehicle/camptothecin viability":-0.163}
{"gene":"CLECL1 (C-type lectin like 1)","PubChem SID":"SID164578645","log2 vehicle/camptothecin viability":-0.318}
{"gene":"LOXL2 (lysyl oxidase like 2)","PubChem SID":"SID164374097","log2 vehicle/camptothecin viability":-0.319}
{"gene":"LOXL2 (lysyl oxidase like 2)","PubChem SID":"SID164374098","log2 vehicle/camptothecin viability":-0.0578}
{"gene":"LOXL2 (lysyl oxidase like 2)","PubChem SID":"SID164374099","log2 vehicle/camptothecin viability":-0.194}
{"gene":"LOXL2 (lysyl oxidase like 2)","PubChem SID":"SID164374100","log2 vehicle/camptothecin viability":-0.0776}
{"gene":"PFKFB3 (6-phosphofructo-2-kinase/fructose-2,6-biphosphatase 3)","PubChem SID":"SID164380329","log2 vehicle/camptothecin viability":-0.847}
{"gene":"PFKFB3 (6-phosphofructo-2-kinase/fructose-2,6-biphosphatase 3)","PubChem SID":"SID164380331","log2 vehicle/camptothecin viability":0.112}
{"gene":"PFKFB3 (6-phosphofructo-2-kinase/fructose-2,6-biphosphatase 3)","PubChem SID":"SID164380332","log2 vehicle/camptothecin viability":-0.29}
{"gene":"PFKFB3 (6-phosphofructo-2-kinase/fructose-2,6-biphosphatase 3)","PubChem SID":"SID164380333","log2 vehicle/camptothecin viability":-0.0284}
{"gene":"CROT (carnitine O-octanoyltransferase)","PubChem SID":"SID164480020","log2 vehicle/camptothecin viability":-0.159}
{"gene":"CROT (carnitine O-octanoyltransferase)","PubChem SID":"SID164480021","log2 vehicle/camptothecin viability":0.205}
{"gene":"CROT (carnitine O-octanoyltransferase)","PubChem SID":"SID164480022","log2 vehicle/camptothecin viability":-0.144}
{"gene":"CROT (carnitine O-octanoyltransferase)","PubChem SID":"SID164480029","log2 vehicle/camptothecin viability":-0.135}
{"gene":"KLK4 (kallikrein related peptidase 4)","PubChem SID":"SID164404914","log2 vehicle/camptothecin viability":0.551}
{"gene":"KLK4 (kallikrein related peptidase 4)","PubChem SID":"SID164404915","log2 vehicle/camptothecin viability":0.775}
{"gene":"KLK4 (kallikrein related peptidase 4)","PubChem SID":"SID164404916","log2 vehicle/camptothecin viability":-0.0521}
{"gene":"KLK4 (kallikrein related peptidase 4)","PubChem SID":"SID164404918","log2 vehicle/camptothecin viability":-0.103}
{"gene":"NOS3 (nitric oxide synthase 3)","PubChem SID":"SID164378183","log2 vehicle/camptothecin viability":0.187}
{"gene":"NOS3 (nitric oxide synthase 3)","PubChem SID":"SID164378187","log2 vehicle/camptothecin viability":0.317}
{"gene":"NOS3 (nitric oxide synthase 3)","PubChem SID":"SID164378189","log2 vehicle/camptothecin viability":-0.259}
{"gene":"NOS3 (nitric oxide synthase 3)","PubChem SID":"SID164378190","log2 vehicle/camptothecin viability":0.0742}

Targets listed so far whose gene name begins with N or n (4):
{"gene":"NOS3 (nitric oxide synthase 3)","PubChem SID":"SID164378183","log2 vehicle/camptothecin viability":0.187}
{"gene":"NOS3 (nitric oxide synthase 3)","PubChem SID":"SID164378187","log2 vehicle/camptothecin viability":0.317}
{"gene":"NOS3 (nitric oxide synthase 3)","PubChem SID":"SID164378189","log2 vehicle/camptothecin viability":-0.259}
{"gene":"NOS3 (nitric oxide synthase 3)","PubChem SID":"SID164378190","log2 vehicle/camptothecin viability":0.0742}
